The other results are listed elsewhere or left out.
Experiments:
Experiment in all cases: log2 fold change, soluble protein after heating vs DMSO (PISA); higher = thermal stabilisation; K562 lysate, 10 uM; active = over 0.2 and 3.5 SD of the protein, either way, in both replicates (recomputed)
ibrutinib = compound: C=CC(=O)N1CCC[C@@H](n2nc(-c3ccc(Oc4ccccc4)cc3)c3c(N)ncnc32)C1 [ibrutinib]
Method in brief: (§1)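 The values are log-two fold changes in thermal stability compared with solvent controls and come from duplicates. They were obtained by TMTpro 16plex LC-MS/MS, with channel sums equalised, on the supernatant after 21,000xg for 90 min. That supernatant came from crude K562 extract at 1 mg/mL protein treated with 10 μM compound for 30 min, heated for 3 min across 48°C-58°C, pooled and brought to 0.5% NP-40 at 4°C.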

Sequences of proteins named here, by UniProt entry; tags and fusion partners are left off. A change or cut given only in a name is not applied to a line headed by its entry.
UniProt Q5T2R2: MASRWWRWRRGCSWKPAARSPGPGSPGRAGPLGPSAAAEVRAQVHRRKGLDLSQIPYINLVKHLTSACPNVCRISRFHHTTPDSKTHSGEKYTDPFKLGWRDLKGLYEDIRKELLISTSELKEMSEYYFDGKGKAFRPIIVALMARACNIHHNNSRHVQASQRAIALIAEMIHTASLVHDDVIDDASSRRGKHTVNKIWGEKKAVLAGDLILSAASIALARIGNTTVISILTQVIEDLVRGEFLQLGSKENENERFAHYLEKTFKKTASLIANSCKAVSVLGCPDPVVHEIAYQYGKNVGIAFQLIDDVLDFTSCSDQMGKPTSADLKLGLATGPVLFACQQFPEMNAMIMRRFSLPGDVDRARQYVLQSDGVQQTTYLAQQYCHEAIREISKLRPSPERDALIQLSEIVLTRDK
UniProt Q29RF7: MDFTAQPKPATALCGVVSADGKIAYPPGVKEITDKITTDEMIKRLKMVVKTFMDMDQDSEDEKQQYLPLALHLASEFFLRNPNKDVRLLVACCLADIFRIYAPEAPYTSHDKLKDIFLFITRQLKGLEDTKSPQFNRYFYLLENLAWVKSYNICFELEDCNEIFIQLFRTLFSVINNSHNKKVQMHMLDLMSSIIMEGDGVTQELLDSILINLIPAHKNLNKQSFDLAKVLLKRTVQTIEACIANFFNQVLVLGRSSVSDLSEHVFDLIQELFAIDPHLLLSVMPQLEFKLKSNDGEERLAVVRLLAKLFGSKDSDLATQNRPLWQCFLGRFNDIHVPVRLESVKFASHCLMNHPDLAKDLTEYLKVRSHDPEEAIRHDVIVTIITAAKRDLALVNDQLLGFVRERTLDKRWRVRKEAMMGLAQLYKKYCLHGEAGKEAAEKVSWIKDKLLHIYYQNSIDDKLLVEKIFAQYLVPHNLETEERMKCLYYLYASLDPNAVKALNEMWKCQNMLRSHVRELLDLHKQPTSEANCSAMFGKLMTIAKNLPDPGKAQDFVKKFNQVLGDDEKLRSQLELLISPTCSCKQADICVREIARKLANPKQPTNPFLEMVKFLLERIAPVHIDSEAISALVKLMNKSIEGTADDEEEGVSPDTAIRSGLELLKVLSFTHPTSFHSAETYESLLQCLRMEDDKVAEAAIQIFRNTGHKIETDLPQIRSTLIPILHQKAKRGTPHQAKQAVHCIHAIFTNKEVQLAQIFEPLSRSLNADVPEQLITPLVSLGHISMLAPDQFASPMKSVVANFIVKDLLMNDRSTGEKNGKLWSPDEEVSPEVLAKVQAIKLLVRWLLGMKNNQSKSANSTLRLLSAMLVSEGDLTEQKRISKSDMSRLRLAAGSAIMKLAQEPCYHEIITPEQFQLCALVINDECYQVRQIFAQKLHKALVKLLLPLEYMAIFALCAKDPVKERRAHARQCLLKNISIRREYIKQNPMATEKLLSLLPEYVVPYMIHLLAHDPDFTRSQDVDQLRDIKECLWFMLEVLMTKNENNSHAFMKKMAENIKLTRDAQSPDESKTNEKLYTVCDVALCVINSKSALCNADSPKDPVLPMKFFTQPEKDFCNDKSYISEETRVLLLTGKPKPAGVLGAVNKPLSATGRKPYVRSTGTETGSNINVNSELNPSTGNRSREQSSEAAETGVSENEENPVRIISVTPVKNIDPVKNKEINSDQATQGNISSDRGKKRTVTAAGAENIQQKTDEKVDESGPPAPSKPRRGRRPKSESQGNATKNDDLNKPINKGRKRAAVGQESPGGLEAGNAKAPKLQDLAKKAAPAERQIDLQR
UniProt P22061: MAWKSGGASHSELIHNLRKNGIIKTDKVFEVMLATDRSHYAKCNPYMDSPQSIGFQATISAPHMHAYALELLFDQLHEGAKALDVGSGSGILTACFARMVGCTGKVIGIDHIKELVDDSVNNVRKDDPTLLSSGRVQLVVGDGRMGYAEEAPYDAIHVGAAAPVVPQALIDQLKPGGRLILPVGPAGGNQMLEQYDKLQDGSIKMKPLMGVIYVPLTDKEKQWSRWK
UniProt Q8WUM4: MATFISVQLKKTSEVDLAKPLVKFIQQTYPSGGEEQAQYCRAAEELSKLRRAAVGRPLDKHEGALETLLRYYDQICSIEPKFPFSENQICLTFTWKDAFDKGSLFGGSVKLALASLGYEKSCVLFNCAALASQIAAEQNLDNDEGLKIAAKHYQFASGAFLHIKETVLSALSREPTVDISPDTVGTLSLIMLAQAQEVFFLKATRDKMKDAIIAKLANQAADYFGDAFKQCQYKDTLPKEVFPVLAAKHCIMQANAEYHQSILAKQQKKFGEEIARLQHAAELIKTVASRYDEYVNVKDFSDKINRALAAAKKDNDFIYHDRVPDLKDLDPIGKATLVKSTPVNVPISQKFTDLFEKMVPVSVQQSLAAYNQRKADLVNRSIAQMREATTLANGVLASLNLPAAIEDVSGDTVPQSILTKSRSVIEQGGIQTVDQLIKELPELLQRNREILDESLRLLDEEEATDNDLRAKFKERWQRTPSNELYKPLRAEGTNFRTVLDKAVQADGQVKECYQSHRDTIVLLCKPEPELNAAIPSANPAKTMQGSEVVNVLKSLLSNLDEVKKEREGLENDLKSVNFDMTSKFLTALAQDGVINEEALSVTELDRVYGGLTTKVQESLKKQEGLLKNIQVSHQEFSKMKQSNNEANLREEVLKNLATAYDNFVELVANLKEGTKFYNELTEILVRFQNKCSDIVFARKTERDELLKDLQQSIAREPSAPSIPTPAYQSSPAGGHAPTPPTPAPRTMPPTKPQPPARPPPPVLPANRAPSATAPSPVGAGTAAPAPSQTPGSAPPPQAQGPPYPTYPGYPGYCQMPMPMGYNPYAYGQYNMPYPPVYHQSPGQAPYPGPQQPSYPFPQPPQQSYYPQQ
UniProt P30101, whole entry, looked up: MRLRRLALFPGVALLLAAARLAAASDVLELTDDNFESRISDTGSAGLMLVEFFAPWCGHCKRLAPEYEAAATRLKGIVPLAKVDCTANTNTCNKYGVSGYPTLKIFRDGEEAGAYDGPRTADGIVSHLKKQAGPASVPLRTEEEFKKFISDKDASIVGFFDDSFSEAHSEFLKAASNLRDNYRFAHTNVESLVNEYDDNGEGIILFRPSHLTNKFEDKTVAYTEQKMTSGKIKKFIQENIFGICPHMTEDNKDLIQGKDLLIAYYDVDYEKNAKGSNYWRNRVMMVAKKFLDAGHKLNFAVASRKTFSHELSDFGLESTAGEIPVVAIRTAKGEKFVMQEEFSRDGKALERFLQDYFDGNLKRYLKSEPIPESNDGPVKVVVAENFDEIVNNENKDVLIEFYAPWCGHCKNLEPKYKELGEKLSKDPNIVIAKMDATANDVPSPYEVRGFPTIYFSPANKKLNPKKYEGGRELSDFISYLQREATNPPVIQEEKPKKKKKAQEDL
UniProt Q9NUG6, whole entry, looked up: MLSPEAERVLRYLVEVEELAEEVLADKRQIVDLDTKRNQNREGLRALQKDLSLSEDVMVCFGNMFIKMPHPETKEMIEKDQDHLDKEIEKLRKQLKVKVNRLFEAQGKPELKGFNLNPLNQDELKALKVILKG
UniProt P52209: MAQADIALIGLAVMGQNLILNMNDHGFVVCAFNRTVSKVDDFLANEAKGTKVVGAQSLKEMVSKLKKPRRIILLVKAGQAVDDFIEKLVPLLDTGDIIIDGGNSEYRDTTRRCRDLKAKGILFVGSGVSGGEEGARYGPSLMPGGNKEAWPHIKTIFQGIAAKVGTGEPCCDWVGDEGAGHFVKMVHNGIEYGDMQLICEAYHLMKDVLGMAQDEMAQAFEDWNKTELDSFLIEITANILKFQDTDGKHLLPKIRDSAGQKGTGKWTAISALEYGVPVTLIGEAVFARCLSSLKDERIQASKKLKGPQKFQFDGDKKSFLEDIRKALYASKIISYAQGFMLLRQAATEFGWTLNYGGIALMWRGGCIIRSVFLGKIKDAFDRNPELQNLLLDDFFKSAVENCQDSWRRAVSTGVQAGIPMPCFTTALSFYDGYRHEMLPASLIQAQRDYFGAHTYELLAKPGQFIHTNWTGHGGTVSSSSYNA
UniProt Q9H0N5: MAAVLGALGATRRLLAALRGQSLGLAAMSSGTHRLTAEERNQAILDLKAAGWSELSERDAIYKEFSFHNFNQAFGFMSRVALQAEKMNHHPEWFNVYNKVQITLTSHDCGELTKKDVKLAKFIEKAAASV
UniProt Q5VU43: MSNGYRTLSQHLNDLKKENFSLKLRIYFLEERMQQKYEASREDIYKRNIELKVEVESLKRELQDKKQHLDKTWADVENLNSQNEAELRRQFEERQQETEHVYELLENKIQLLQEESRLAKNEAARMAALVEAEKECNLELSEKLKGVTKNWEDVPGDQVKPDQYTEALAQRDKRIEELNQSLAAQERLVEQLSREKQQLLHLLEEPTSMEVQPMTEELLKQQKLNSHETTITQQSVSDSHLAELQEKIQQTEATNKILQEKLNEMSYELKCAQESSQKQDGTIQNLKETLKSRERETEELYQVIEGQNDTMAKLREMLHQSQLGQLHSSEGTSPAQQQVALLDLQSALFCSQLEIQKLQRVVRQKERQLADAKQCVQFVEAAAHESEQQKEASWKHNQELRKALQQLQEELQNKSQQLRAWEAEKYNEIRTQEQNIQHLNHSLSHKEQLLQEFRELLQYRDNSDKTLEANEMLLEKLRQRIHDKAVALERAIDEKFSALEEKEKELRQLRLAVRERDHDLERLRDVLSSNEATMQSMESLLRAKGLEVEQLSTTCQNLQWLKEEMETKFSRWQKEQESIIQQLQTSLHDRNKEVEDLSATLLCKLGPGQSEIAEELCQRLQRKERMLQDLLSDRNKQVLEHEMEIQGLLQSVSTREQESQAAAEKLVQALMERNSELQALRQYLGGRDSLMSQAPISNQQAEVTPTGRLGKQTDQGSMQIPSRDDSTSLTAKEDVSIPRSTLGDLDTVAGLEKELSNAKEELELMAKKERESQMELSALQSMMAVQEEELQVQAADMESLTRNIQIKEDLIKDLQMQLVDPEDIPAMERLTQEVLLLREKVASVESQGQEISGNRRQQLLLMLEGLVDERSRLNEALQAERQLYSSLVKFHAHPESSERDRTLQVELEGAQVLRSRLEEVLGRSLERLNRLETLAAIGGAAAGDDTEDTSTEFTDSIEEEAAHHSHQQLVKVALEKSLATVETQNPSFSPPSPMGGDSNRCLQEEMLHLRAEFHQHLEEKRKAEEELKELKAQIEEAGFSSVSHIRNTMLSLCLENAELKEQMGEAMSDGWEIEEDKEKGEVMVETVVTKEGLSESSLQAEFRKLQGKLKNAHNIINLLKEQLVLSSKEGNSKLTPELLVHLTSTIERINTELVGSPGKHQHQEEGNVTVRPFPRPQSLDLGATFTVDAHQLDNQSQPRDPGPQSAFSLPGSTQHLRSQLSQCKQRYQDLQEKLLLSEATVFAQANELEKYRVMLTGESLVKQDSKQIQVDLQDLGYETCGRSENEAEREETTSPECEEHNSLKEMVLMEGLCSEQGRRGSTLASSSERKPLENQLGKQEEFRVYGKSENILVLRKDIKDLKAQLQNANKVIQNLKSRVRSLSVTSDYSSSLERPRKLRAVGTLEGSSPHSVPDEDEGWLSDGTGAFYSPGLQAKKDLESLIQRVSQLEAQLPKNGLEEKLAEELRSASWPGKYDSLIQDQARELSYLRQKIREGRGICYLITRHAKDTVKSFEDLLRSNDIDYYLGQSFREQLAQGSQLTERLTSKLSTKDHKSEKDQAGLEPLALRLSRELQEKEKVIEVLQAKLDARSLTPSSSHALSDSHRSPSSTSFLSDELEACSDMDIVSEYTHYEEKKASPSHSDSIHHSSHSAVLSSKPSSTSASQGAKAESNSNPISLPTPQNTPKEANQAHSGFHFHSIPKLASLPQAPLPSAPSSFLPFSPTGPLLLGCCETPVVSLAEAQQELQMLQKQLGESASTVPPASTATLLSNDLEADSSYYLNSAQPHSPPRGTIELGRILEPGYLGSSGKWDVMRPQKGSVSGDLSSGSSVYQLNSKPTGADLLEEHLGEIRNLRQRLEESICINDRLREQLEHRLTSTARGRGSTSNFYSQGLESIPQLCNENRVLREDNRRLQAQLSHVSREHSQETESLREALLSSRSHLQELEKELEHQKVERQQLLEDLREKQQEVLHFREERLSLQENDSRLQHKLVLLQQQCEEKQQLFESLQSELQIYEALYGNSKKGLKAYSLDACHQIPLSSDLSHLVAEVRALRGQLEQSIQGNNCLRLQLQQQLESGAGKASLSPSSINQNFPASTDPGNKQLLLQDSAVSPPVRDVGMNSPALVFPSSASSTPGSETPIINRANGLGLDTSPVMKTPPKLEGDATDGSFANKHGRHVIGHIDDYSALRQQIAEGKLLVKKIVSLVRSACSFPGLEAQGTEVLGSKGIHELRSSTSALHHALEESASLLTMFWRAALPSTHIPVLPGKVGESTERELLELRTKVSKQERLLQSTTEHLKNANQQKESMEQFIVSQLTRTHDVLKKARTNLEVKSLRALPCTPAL
UniProt O14737: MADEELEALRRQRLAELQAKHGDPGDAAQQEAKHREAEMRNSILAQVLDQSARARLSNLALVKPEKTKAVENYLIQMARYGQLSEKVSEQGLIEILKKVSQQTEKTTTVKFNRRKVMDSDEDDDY

[1] = compound: CC(=O)c1cnc2ccc(-c3cc(Cl)c(O)c(Cl)c3)nc2c1N[C@H]1CC[C@H](CN(C)C)CC1
Method in brief: as §1

ralimetinib = compound: CC(C)(C)Cn1c(N)nc2ccc(-c3[nH]c(C(C)(C)C)nc3-c3ccc(F)cc3)nc21 [ralimetinib]
Method in brief: as §1

[2] = compound: CC(C)(O)CC(=O)NCCn1ccc2ncnc(Nc3ccc(Oc4cccc(C(F)(F)F)c4)c(Cl)c3)c21
Method in brief: as §1

[3] = compound: CC(C)C1=C2N=C(C=C(N2N=C1)NCC3=CC=CC=C3)NCCCCCCN
Method in brief: as §1

[4] = compound: CC1=C(C(CC(=O)N1)C2=CC=C(C=C2)C(F)(F)F)C(=O)NC3=C(C=C4C(=C3)C=NN4)F
Method in brief: as §1

[5] = compound: CC1=C(C2=C(C=C1)C(=O)C3=CC=CC=C3N2CCCN)C
Method in brief: as §1

[6] = compound: CC1=C(C=C(C=C1)NC(=O)C2=CC(=CC=C2)C(C)(C)C#N)NC3=CC4=C(C=C3)N=CN(C4=O)C
Method in brief: as §1

[7] = compound: CC1=C(C=C(C=C1)NC(=O)C2=CC(=CC=C2)N(C)C)NC(=O)C3=CC=C(C=C3)O
Method in brief: as §1

[8] = compound: CC1=CC=C(C=C1)SC2=C3C=C(SC3=CN=C2)C(=O)N
Method in brief: as §1

vemurafenib = compound: CCCS(=O)(=O)Nc1ccc(F)c(C(=O)c2c[nH]c3ncc(-c4ccc(Cl)cc4)cc23)c1F [vemurafenib]
Method in brief: as §1

[9] = compound: CCCS(=O)(=O)Nc1ccc(F)c(C(=O)c2c[nH]c3ncc(Cl)cc23)c1F
Method in brief: as §1

barasertib = compound: CCN(CCCOc1ccc2c(Nc3cc(CC(=O)Nc4cccc(F)c4)[nH]n3)ncnc2c1)CCOP(=O)(O)O [barasertib]
Method in brief: as §1

[10] = compound: CC[C@@H]1C(=O)N(C)c2cnc(Nc3ccc(C(=O)NC4CCN(C)CC4)cc3OC)nc2N1C1CCCC1
Method in brief: as §1

volasertib = compound: CC[C@@H]1C(=O)N(C)c2cnc(Nc3ccc(C(=O)N[C@H]4CC[C@H](N5CCN(CC6CC6)CC5)CC4)cc3OC)nc2N1C(C)C [volasertib]
Method in brief: as §1

[11] = compound: CCn1c(C(=O)N(C2CC2)C2CC2)cc2c3c(ncn3C)c(Nc3cc(C)n(C)n3)nc21
Method in brief: as §1

[12] = compound: CCn1cc(-c2ccnc3[nH]c(-c4cccc(CN(C)C)c4)cc23)c(-c2ccc(NC(=O)N(C)C)cc2)n1
Method in brief: as §1

[13] = compound: CN1CCC(CNc2ccc3ncc(-c4cccc(OC(F)(F)F)c4)n3n2)CC1
Method in brief: as §1

saracatinib = compound: CN1CCN(CCOc2cc(OC3CCOCC3)c3c(Nc4c(Cl)ccc5c4OCO5)ncnc3c2)CC1 [saracatinib]
Method in brief: as §1

sotrastaurin = compound: CN1CCN(c2nc(C3=C(c4c[nH]c5ccccc45)C(=O)NC3=O)c3ccccc3n2)CC1 [sotrastaurin]
Method in brief: as §1

Measured: log2 fold change

PDXK (UniProt O00764)
active: [10] 0.329
inactive: ibrutinib 0.007 | [1] 0.014 | ralimetinib 0.01 | [2] -0.006 | [3] -0.009 | [4] 0.017 | [5] -0.058 | [6] 0.016 | [7] -0.029 | [8] -0.001 | vemurafenib 0.005 | [9] -0.001 | barasertib -0.014 | volasertib 0.025 | [11] -0.004 | [12] -0.134 | [13] 0.156 | saracatinib -0.023 | sotrastaurin -0.016

PDSS1 (UniProt Q5T2R2)
inactive: ibrutinib 0.065 | [1] -0.07 | ralimetinib 0.012 | [2] 0.038 | [3] 0.009 | [4] -0.029 | [5] 0.068 | [6] -0.061 | [7] 0.038 | [8] -0.068 | vemurafenib -0.059 | [9] -0.077 | barasertib 0.035 | [10] -0.04 | volasertib 0 | [11] 0.122 | [12] 0.117 | [13] -0.042 | saracatinib 0.145 | sotrastaurin 0.088

PDS5A (UniProt Q29RF7)
inactive: ibrutinib 0 | [1] 0.013 | ralimetinib 0.008 | [2] -0.017 | [3] -0.029 | [4] 0.023 | [5] -0.038 | [6] 0.017 | [7] 0.031 | [8] 0.039 | vemurafenib 0.023 | [9] 0.031 | barasertib 0.064 | [10] -0.057 | volasertib -0.029 | [11] 0.054 | [12] -0.12 | [13] -0.019 | saracatinib 0.007 | sotrastaurin 0.026

PDLIM5 (UniProt Q96HC4)
inactive: ibrutinib 0.033 | [1] -0.003 | ralimetinib 0.009 | [2] -0.027 | [3] -0.006 | [4] -0.008 | [5] 0.002 | [6] 0.022 | [7] -0.019 | [8] -0.027 | vemurafenib -0.028 | [9] 0.014 | barasertib -0.079 | [10] 0.022 | volasertib 0.013 | [11] -0.046 | [12] -0.132 | [13] 0.142 | saracatinib 0 | sotrastaurin -0.043

PCF11 (UniProt O94913)
inactive: ibrutinib -0.027 | [1] -0.006 | ralimetinib -0.005 | [2] -0.02 | [3] 0.022 | [4] 0.03 | [5] -0.02 | [6] -0.021 | [7] 0.045 | [8] -0.02 | vemurafenib 0.042 | [9] 0.012 | barasertib 0.015 | [10] 0.02 | volasertib -0.029 | [11] -0.045 | [12] 0.081 | [13] -0.018 | saracatinib -0.003 | sotrastaurin 0.006

PCMT1 isoform 2 (UniProt P22061)
inactive: ibrutinib 0.052 | [1] -0.002 | ralimetinib -0.019 | [2] 0.052 | [3] 0.005 | [4] -0.018 | [5] 0.016 | [6] -0.031 | [7] -0.008 | [8] 0 | vemurafenib 0.019 | [9] -0.006 | barasertib 0.055 | [10] 0.006 | volasertib -0.014 | [11] 0.028 | [12] 0.054 | [13] -0.043 | saracatinib -0.002 | sotrastaurin -0.018

PDCD6IP (UniProt Q8WUM4)
inactive: ibrutinib -0.056 | [1] 0.042 | ralimetinib -0.066 | [2] -0.004 | [3] 0.078 | [4] 0.009 | [5] 0.004 | [6] -0.037 | [7] 0.02 | [8] -0.03 | vemurafenib -0.003 | [9] 0.015 | barasertib 0.083 | [10] -0.061 | volasertib 0.006 | [11] 0.013 | [12] -0.073 | [13] -0.035 | saracatinib -0.068 | sotrastaurin -0.139

PDIA3 (UniProt P30101)
inactive: ibrutinib -0.006 | [1] 0.01 | ralimetinib -0.017 | [2] 0.06 | [3] -0.006 | [4] -0.003 | [5] 0.025 | [6] -0.024 | [7] -0.019 | [8] 0.007 | vemurafenib -0.039 | [9] -0.021 | barasertib -0.035 | [10] -0.013 | volasertib 0.007 | [11] 0.016 | [12] 0.03 | [13] -0.038 | saracatinib -0.02 | sotrastaurin 0.008

PDRG1 (UniProt Q9NUG6)
inactive: ibrutinib 0.038 | [1] -0.001 | ralimetinib -0.012 | [2] -0.032 | [3] 0.048 | [4] 0.036 | [5] -0.021 | [6] 0.052 | [7] -0.004 | [8] -0.024 | vemurafenib 0.057 | [9] 0.019 | barasertib -0.036 | [10] 0.045 | volasertib 0.037 | [11] -0.013 | [12] 0.005 | [13] -0.01 | saracatinib 0.013 | sotrastaurin 0.003

PGD (UniProt P52209)
inactive: ibrutinib -0.011 | [1] -0.003 | ralimetinib -0.017 | [2] 0.007 | [3] 0.001 | [4] -0.009 | [5] 0.015 | [6] -0.008 | [7] 0.006 | [8] 0.007 | vemurafenib 0.018 | [9] -0.006 | barasertib -0.018 | [10] -0.022 | volasertib 0.004 | [11] -0.002 | [12] 0.052 | [13] -0.055 | saracatinib 0.003 | sotrastaurin 0.004

PEX5 isoform 4 (UniProt P50542)
inactive: ibrutinib 0.049 | [1] 0.056 | ralimetinib 0.018 | [2] 0.006 | [3] -0.04 | [4] -0.028 | [5] -0.001 | [6] 0.02 | [7] 0.045 | [8] 0.018 | vemurafenib 0.044 | [9] 0.06 | barasertib -0.003 | [10] -0.081 | volasertib 0.066 | [11] 0.037 | [12] 0.055 | [13] -0.048 | saracatinib 0.014 | sotrastaurin 0.024

PARS2 (UniProt Q7L3T8)
inactive: ibrutinib -0.004 | [1] 0.006 | ralimetinib 0.03 | [2] -0.017 | [3] -0.029 | [4] 0.015 | [5] -0.051 | [6] 0.004 | [7] 0.019 | [8] 0.013 | vemurafenib -0.028 | [9] 0.002 | barasertib 0.015 | [10] -0.031 | volasertib -0.004 | [11] 0.009 | [12] 0.061 | [13] -0.021 | saracatinib -0.046 | sotrastaurin -0.006

PCBD2 (UniProt Q9H0N5)
inactive: ibrutinib 0.035 | [1] 0.02 | ralimetinib 0.051 | [2] -0.08 | [3] 0.033 | [4] 0.025 | [5] 0.022 | [6] 0.027 | [7] -0.007 | [8] -0.03 | vemurafenib 0.004 | [9] -0.017 | barasertib 0.013 | [10] 0.018 | volasertib 0.016 | [11] 0.031 | [12] -0.237 | [13] 0.11 | saracatinib -0.05 | sotrastaurin 0.055

PDE4DIP isoform 4 (UniProt Q5VU43)
inactive: ibrutinib 0.249 | [1] -0.021 | ralimetinib 0.02 | [2] -0.03 | [3] -0.061 | [4] -0.032 | [5] 0.006 | [6] 0.054 | [7] -0.033 | [8] 0.017 | vemurafenib 0.027 | [9] 0.011 | barasertib 0.092 | [10] 0.046 | volasertib 0.025 | [11] 0.04 | [12] -0.04 | [13] -0.005 | saracatinib 0.034 | sotrastaurin -0.014

PATL1 (UniProt Q86TB9)
inactive: ibrutinib -0.01 | [1] 0.035 | ralimetinib -0.004 | [2] -0.098 | [3] -0.098 | [4] 0.007 | [5] 0.011 | [6] -0.03 | [7] -0.012 | [8] -0.04 | vemurafenib -0.049 | [9] 0.019 | barasertib 0.04 | [10] 0.02 | volasertib -0.036 | [11] 0.027 | [12] 0.007 | [13] -0.009 | saracatinib -0.027 | sotrastaurin 0.086

PDCD5 (UniProt O14737)
inactive: ibrutinib 0.069 | [1] 0.021 | ralimetinib -0.035 | [2] -0.003 | [3] -0.014 | [4] -0.032 | [5] 0.038 | [6] -0.032 | [7] -0.03 | [8] -0.002 | vemurafenib -0.01 | [9] -0.012 | barasertib 0.044 | [10] 0.034 | volasertib 0.052 | [11] 0 | [12] -0.189 | [13] 0.099 | saracatinib -0.044 | sotrastaurin 0.014

Fetched one by one from the entries so far (2):
PCBD2 (UniProt Q9H0N5)
inactive: ibrutinib 0.035 | [1] 0.02 | ralimetinib 0.051 | [2] -0.08 | [3] 0.033 | [4] 0.025 | [5] 0.022 | [6] 0.027 | [7] -0.007 | [8] -0.03 | vemurafenib 0.004 | [9] -0.017 | barasertib 0.013 | [10] 0.018 | volasertib 0.016 | [11] 0.031 | [12] -0.237 | [13] 0.11 | saracatinib -0.05 | sotrastaurin 0.055

PDE4DIP isoform 4 (UniProt Q5VU43)
inactive: ibrutinib 0.249 | [1] -0.021 | ralimetinib 0.02 | [2] -0.03 | [3] -0.061 | [4] -0.032 | [5] 0.006 | [6] 0.054 | [7] -0.033 | [8] 0.017 | vemurafenib 0.027 | [9] 0.011 | barasertib 0.092 | [10] 0.046 | volasertib 0.025 | [11] 0.04 | [12] -0.04 | [13] -0.005 | saracatinib 0.034 | sotrastaurin -0.014

Reference: the supplement of paper PMC10849652
